Measured values as given in paper PMC5587910, “Methionine Sulfoxide Reductase A (MsrA) and Its Function in Ubiquitin-Like Protein Modification in Archaea” (mBio, 2017).

T1: Flag-SAMP1 S85R (Haloferax volcanii) (UniProt D4GUF6)
T1 sequence: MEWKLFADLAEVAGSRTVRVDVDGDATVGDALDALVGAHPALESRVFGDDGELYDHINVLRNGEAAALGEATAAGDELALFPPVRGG


target: T1, Flag-SAMP1 S85R (Haloferax volcanii); experiment: affinity purification with mass spectrometry; Flag-SAMP1 S85R expressed in Hfx. volcanii H26 (parent) grown with 100 mM DMSO; lysate (2 M NaCl, 1% Triton X-100, 1 mM EDTA) on anti-Flag M2 beads, washed in TBS, eluted with 3x Flag peptide; reducing SDS-PAGE, gel regions of 30 to 45 and 60 to 200 kDa analysed by LC-MS/MS; ΔmsrA strain in …

binding | Binder
binds | Molybdopterin molybdenum transferase MoeA2 (protein, UniProt D4GWD6 1-634) MRKQFRDLASPEDAREAIASLDLTPDAETVALDDARGRVLAERIDAELDVPGFDRASMDGYAVRARDTFGADEADPVELDLAGAVHAGNEPDVAVDPGTAVEISTGAVMPPGADAVVIVERTEERDGSLVVYSSVAPGDSVMPAGTDTAAGARALGPGTRLTPREIGLLSALGVDEVPVRGKPTVGIVSTGDELVRPGDELRPEAGEIYDVNSYTIAAGVEEAGGVPKLYPHAGDDYEEMERLLRRAADECDLVLSSGSTSASAVDVIYRVVEERGELLLHGVSVKPGKPMLVGTLGEGSAYIGLPGYPVSALTIFRTFVAPAVRDAAGLPEPRTATVEGTMAARERYAEGRTRLMPVGLVADGDGETLVYPVDKGSGATTSLVEADGVVEVSADVEYLAEGESVTVHLFSPDVRAPALLGVGEDDPALSRVLDRVSSPRYLPFGSREGLRRLRDGISDVAVVAGDRGDAIDDIDAVELGSWTREWGLVVPAGNPDGVSGLADLVDDDLRFINRDSNSGLRTDLGNAVAALADERGTTRHELVESIEGFDRGTKAFESPARAVAAGRADAGLGLRATADSLGLDFVSLGTQPVAVLANPARIEKPGVDSLRDALAASDDAFADLSGFERGQTPR
binds | Thermosome subunit 1 (protein, UniProt O30561 1-560) MSQRMQQGQPMIILGEDSQRTSGQDAQSMNITAGKAVAEAVRTTLGPKGMDKMLVDSGGQVVVTNDGVTILKEMDIDHPAANMIVEVSETQEDEVGDGTTTAVINAGELLDQAEDLLDSDVHATTIAQGYRQAAEKAKEVLEDNAIEVTEDDRETLTKIAATAMTGKGAESAKDLLSELVVDAVLAVKDDDGIDTNNVSIEKVVGGTIDNSELVEGVIVDKERVDENMPYAVEDANIAILDDALEVRETEIDAEVNVTDPDQLQQFLDQEEKQLKEMVDQLVEVGADAVFVGDGIDDMAQHYLAKEGILAVRRAKSSDLKRLARATGGRVVSSLDDIEADDLGFAGSVGQKDVGGDERIFVEDVEDAKSVTLILRGGTEHVVDELERAIEDSLGVVRTTLEDGKVLPGGGAPETELSLQLREFADSVGGREQLAVEAFAEALDIIPRTLAENAGLDPIDSLVDLRSRHDGGEFAAGLDAYTGEVIDMEEEGVVEPLRVKTQAIESATEAAVMILRIDDVIAAGDLSGGQTGSDDDDGGAPGGMGGGMGGMGGMGGMGGAM
binds | Fe-S cluster assembly ATPase SufC (protein, UniProt D4GUK6 1-301) MATLEIKNLHARVAEEDGEQILRGVDLEVKSGEIHALMGPNGSGKSTTSKIIAGHPAYEVTDGEILLHLEDDDFGDLEIPDDARTWNLLELEPNERAALGIFLGFQYPAEIEGVTMTNFLRTALNAKIDEREELLFGEDAEEEEEEAGYDTSPMEGNVDDGEVGVAEFQKLLKEKMDLLDMDEKFMQRYLNAGFSGGEKKQNEVLQAAILEPSIAVLDEIDSGLDIDRLQDVSKGINALRDEQGTGILQITHYQRILEYVEPDHVHIMLDGKVVKSGDASLASELEDKGYDWVREEVYEAA

No constants are given. Whether binding was seen depends on the method and setting. Binding seen in cells or lysates may run through a third protein. Here binding means that the protein was enriched with, or labelled near, the bait; the list need not be complete. Where a sequence is shown, tags or fusion partners need not be part of it.
